“And” between values parts separate entries of the source, which are not always exact repeats. Equal values may be shown once. The whole screen tested about 410,000 compounds, of which about 18,000 (4.4%) were called active. The shares of active, inactive and inconclusive entries below differ from those in the screen. No stated cut-off is given here; in the data, active means activity change below about -60%; inconclusive means no clear call, values can overlap the other calls; inactive means above about -39%. Some compounds were tested as several samples or in several runs, with calls that do not always agree.
assay: qHTS Assay for inhibitors of the human cytomegalovirus (HCMV); details: HFF cells, HCMV-luciferase reporter, 72 h; at 57.5 µM; stronger effect = lower value
How it was run: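 After 16 h attachment at 37C, HFF cells received test compound and HCMV-luciferase (1 PFU/cell); reporter luminescence read 72 h later, data normalized against buffer-only and known inhibitor Salinomycin.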
On the % scale 0 is the no-effect control and ±100 the full control effect.

Which activity change, negative = inhibition does the source give for `Cc1ccn2c(=O)nc(SCC(=O)N3CCCCC3)nc2c1` here?
The activity change, negative = inhibition was inactive: -12.9%.

Which activity change, negative = inhibition does the source give for `O=C(CCc1ccccc1)N/N=C/c1cc(Br)ccc1O` here?
The activity change, negative = inhibition was active: -76.2%.

Which activity change, negative = inhibition does the source give for `COc1ccc(NC(=O)CCc2nnc3n(CC(C)C)c(=O)c4ccccc4n23)cc1` here?
The activity change, negative = inhibition was inconclusive: -51.9%.

For `Cn1c(SCc2ccccc2F)nnc1-c1ccccn1`, which activity change, negative = inhibition is on record?
Its activity change, negative = inhibition is inconclusive: -44.2%.

With `COc1ccc(CNC(=S)Nc2ccc(F)c(Cl)c2)cc1OC` as the molecule, how does the activity change, negative = inhibition read?
Its activity change, negative = inhibition is inconclusive: -57.5%.

Which activity change, negative = inhibition does the source give for `CC(=O)c1cc2c(C)cc(=O)oc2cc1O` here?
The activity change, negative = inhibition was inconclusive: -51.8%.

Which activity change, negative = inhibition does the source give for `Cc1ccnc(NC(=O)C2CCN(S(=O)(=O)c3ccc4c(c3)CC(C)N4C(=O)C3CCC3)CC2)c1` (centres undefined) here?
The activity change, negative = inhibition was inconclusive: -50.9%.

For `COC(=O)c1cc(C(=O)N2CCN(c3cccc(Cl)c3)CC2)cc([N+](=O)[O-])c1`, which activity change, negative = inhibition is on record?
The activity change, negative = inhibition was active: -67.6%.

For `COC(=O)C1=C(Nc2ccc(C)cc2)C=C(C)C(C(=O)OC)C1c1ccc(OC)cc1` (centres undefined), which activity change, negative = inhibition is on record?
Its activity change, negative = inhibition is inactive: -3.09%.

Which activity change, negative = inhibition does the source give for `COc1cc2c(C#CCCCO)c(-c3ccc(C#N)cc3)oc(=O)c2cc1OC` here?
Its activity change, negative = inhibition is inconclusive: -40%.

Which activity change, negative = inhibition does the source give for `COc1ccc(NC(=S)N(CCCN2CCN(C)CC2)Cc2cccs2)cc1` here?
The activity change, negative = inhibition was inconclusive: -51.5%.

Which activity change, negative = inhibition does the source give for `N#Cc1ccc(-c2csc(NC(=O)/C=C/c3cccs3)n2)cc1` here?
Its activity change, negative = inhibition is inconclusive: -50.3%.

For `CCc1ccccc1NC(=O)CCc1c(C)nn(-c2ccc(N3CCOCC3)nn2)c1C`, which activity change, negative = inhibition is on record?
Its activity change, negative = inhibition is inactive: 10.5% and active: -61.7%.

With `COc1ccc(/C=N/NC(=O)c2cc(=O)[nH]c3ccccc23)cc1OC` as the molecule, how does the activity change, negative = inhibition read?
Its activity change, negative = inhibition is inconclusive: -45%.

For `O=C(NC(CCl)c1ccccc1)c1ccc(Cl)cc1` (centres undefined), which activity change, negative = inhibition is on record?
The activity change, negative = inhibition was inconclusive: -48.2%.

Which activity change, negative = inhibition does the source give for `CC(Sc1nnnn1C)C(=O)NC(=O)NC1CCCCC1` (centres undefined) here?
Its activity change, negative = inhibition is inconclusive: -51%.

For `COc1ccc(/C(N)=N/OC(=O)c2c(-c3ccccc3Cl)noc2C)cc1OC`, which activity change, negative = inhibition is on record?
Its activity change, negative = inhibition is active: -79.5%.

For `N#Cc1c(Nc2ccccc2)c(/C=N/NCCO)c[nH]c1=O`, which activity change, negative = inhibition is on record?
The activity change, negative = inhibition was inconclusive: -53.5%.

With `CSC1CCCCC1(O)CSc1nc2ccccc2o1` (centres undefined) as the molecule, how does the activity change, negative = inhibition read?
Its activity change, negative = inhibition is inconclusive: -58.5%.

With `CCOC(=O)c1c(C)n(C)c2ccc(OCC(O)Cn3c(C)nc4ccccc43)cc12` (centres undefined) as the molecule, how does the activity change, negative = inhibition read?
The activity change, negative = inhibition was active: -60.1%.

With `COc1ccnc(N2CCN(c3ccc(Cl)cc3)CC2)c1C#N` as the molecule, how does the activity change, negative = inhibition read?
The activity change, negative = inhibition was active: -67.8%.

Which activity change, negative = inhibition does the source give for `O=C(CCCn1c(SCc2cc(=O)n3cc(Cl)ccc3n2)nc2ccccc2c1=O)NCC1CCCO1` (centres undefined) here?
Its activity change, negative = inhibition is inconclusive: -48.2%.

For `CC(=O)Cc1nsc(NC(=O)c2ccc(-c3cccc(Cl)c3)o2)n1`, which activity change, negative = inhibition is on record?
The activity change, negative = inhibition was inconclusive: 0%.

With `CC(C)(CNC(=O)c1ccc(Cl)c(S(=O)(=O)N2CCc3ccccc3C2)c1)N1CCOCC1` as the molecule, how does the activity change, negative = inhibition read?
The activity change, negative = inhibition was active: -77.7%.

For `CCc1nc2ccccc2c(C(=O)OCC(=O)N(CC(C)C)c2c(N)n(Cc3ccccc3)c(=O)[nH]c2=O)c1C`, which activity change, negative = inhibition is on record?
The activity change, negative = inhibition was inactive: -19.1%.

With `Cc1ccc2cc3c(N)nn(C(=O)c4cccc(F)c4)c3nc2c1` as the molecule, how does the activity change, negative = inhibition read?
The activity change, negative = inhibition was inactive: -10.7%.

With `CC(C)(C)C(=O)NC(=S)NCCc1ccccc1` as the molecule, how does the activity change, negative = inhibition read?
Its activity change, negative = inhibition is inactive: 24.1%.

With `COc1cc(NC(=S)N2CCN(c3ccccn3)CC2)cc(OC)c1` as the molecule, how does the activity change, negative = inhibition read?
Its activity change, negative = inhibition is inconclusive: -52.1%.

With `CSc1ccc(-c2nc(CSCC(=O)N3CCOCC3)c(C)o2)cc1` as the molecule, how does the activity change, negative = inhibition read?
The activity change, negative = inhibition was active: -74.2%.

For `CCCCc1c(-c2ccccc2)ncn1CCc1ccccc1OC`, which activity change, negative = inhibition is on record?
The activity change, negative = inhibition was active: -75.2%.

With `C=CC[C@H](CC(=O)NCCO)C(=O)NC[C@@H](OC(=O)[C@@H](CC=C)Cc1ccc(F)cc1)c1ccccc1` as the molecule, how does the activity change, negative = inhibition read?
Its activity change, negative = inhibition is inactive: -7.36%.

For `CC(=O)c1ccc(NC(=O)c2ccc(-c3nc(CSc4ccccc4)c(C)o3)cc2)cc1`, which activity change, negative = inhibition is on record?
The activity change, negative = inhibition was active: -76.5%.

With `O=C(Nc1ccccn1)C1CCN(S(=O)(=O)c2ccc3c(c2)OCCCO3)CC1` as the molecule, how does the activity change, negative = inhibition read?
The activity change, negative = inhibition was inconclusive: -50%.

Which activity change, negative = inhibition does the source give for `Cc1ccc(S(=O)(=O)N2CCSCCSCCSCCSCC2)cc1` here?
The activity change, negative = inhibition was inconclusive: -41%.

For `O=C(c1cc(COc2ccc(F)cc2Cl)on1)N1CCSCC1`, which activity change, negative = inhibition is on record?
The activity change, negative = inhibition was inactive: 60.4%.

With `CN(C)S(=O)(=O)Oc1ccc(C(=O)Nc2ccc([N+](=O)[O-])cc2)cc1` as the molecule, how does the activity change, negative = inhibition read?
Its activity change, negative = inhibition is inconclusive: -50.3%.

With `Cc1ccccc1-n1c(SCC(=O)N/N=C/C=C/c2ccccc2[N+](=O)[O-])nc2ccccc2c1=O` as the molecule, how does the activity change, negative = inhibition read?
The activity change, negative = inhibition was inconclusive: -47.9%.

With `CS(=O)(=O)Cc1ccc(C(=O)NCC2(N3CCCCC3)CCCCC2)cc1` as the molecule, how does the activity change, negative = inhibition read?
Its activity change, negative = inhibition is inconclusive: -44.8%.

Which activity change, negative = inhibition does the source give for `COc1ccc(OCCCC(=O)Nc2cccc([N+](=O)[O-])c2C)cc1` here?
Its activity change, negative = inhibition is inconclusive: -43.6%.

For `Clc1ccc(CNc2nnnn2-c2ccccc2)c(Cl)c1`, which activity change, negative = inhibition is on record?
The activity change, negative = inhibition was inconclusive: -41.7%.

Which activity change, negative = inhibition does the source give for `N/C(=N\OC(=O)c1ccc(F)cc1)c1nonc1N` here?
Its activity change, negative = inhibition is inactive: 3.38%.

Which activity change, negative = inhibition does the source give for `Cc1ccc(Oc2ccccc2NC(=O)CN2C(=O)NC3(CCCC3)C2=O)cc1` here?
Its activity change, negative = inhibition is active: -106%.

With `Cc1cc(NC(=O)c2cc3cccc([N+](=O)[O-])c3[nH]2)ccc1F` as the molecule, how does the activity change, negative = inhibition read?
Its activity change, negative = inhibition is inconclusive: -40.4%.

For `COc1ccc(C2CC(=O)C(c3ccccc3C)=CN2Cc2ccccc2)cc1` (centres undefined), which activity change, negative = inhibition is on record?
Its activity change, negative = inhibition is inconclusive: -41%.

Which activity change, negative = inhibition does the source give for `CC(=O)c1cccc(NS(=O)(=O)c2c(C)noc2C)c1` here?
The activity change, negative = inhibition was inactive: 40.4%.

With `CSCCC(NS(=O)(=O)c1ccc2c(c1)oc(=O)n2C)C(=O)N1CCN(c2cccc(Cl)c2)CC1` (centres undefined) as the molecule, how does the activity change, negative = inhibition read?
The activity change, negative = inhibition was inconclusive: -42.8%.

For `O=C(CN1C(=O)COc2ccc(S(=O)(=O)N3CCCCC3)cc21)NCc1ccc(Cl)cc1`, which activity change, negative = inhibition is on record?
The activity change, negative = inhibition was inconclusive: -49.4% and inconclusive: -51.2%.

Which activity change, negative = inhibition does the source give for `Cc1ccc(C(=O)Nc2cccc(C(F)(F)F)c2)cc1Nc1cncnc1` here?
Its activity change, negative = inhibition is inconclusive: -40.8%.

With `Cc1c(Cl)cccc1NC(=O)CSc1nnc(C)n1-c1ccccc1` as the molecule, how does the activity change, negative = inhibition read?
The activity change, negative = inhibition was inconclusive: -40.1%.

With `COc1ccc(-n2nnnc2C2CCN(S(=O)(=O)c3ccc(C(C)(C)C)cc3)CC2)cc1` as the molecule, how does the activity change, negative = inhibition read?
The activity change, negative = inhibition was inactive: 27.8%.

Which activity change, negative = inhibition does the source give for `COc1ccc(OCC(=O)Nc2c(C(=O)N3CCC(N4CCCCC4)CC3)oc3ccccc23)cc1` here?
The activity change, negative = inhibition was inconclusive: 0%.

For `COc1ccccc1NC(=O)C1=C(C)Nc2nc(SCc3ccccc3F)nn2C1c1cccs1` (centres undefined), which activity change, negative = inhibition is on record?
Its activity change, negative = inhibition is inactive: -35.9%.

Which activity change, negative = inhibition does the source give for `Clc1ccc(-c2c(C3=NCCCN3)nnn2-c2ccc(Cl)cc2)cc1` here?
The activity change, negative = inhibition was inconclusive: -41.7%.

With `CC1CCCC(C)N1c1nnc(NC(=O)Cn2c(=O)oc3ccccc32)s1` (centres undefined) as the molecule, how does the activity change, negative = inhibition read?
The activity change, negative = inhibition was inconclusive: -49.8%.
